In article PMC4944944:
No constants are given. Whether binding was seen depends on the method and setting. Binding seen in cells or lysates may run through a third protein. Some entries that bind do so weakly or less than the wild type. For part of these data: Sequences can lack the tags named with a protein.

Columns and labels:
[1] = molecular target: T1, CHDP-1 of the GST pull-down (C. elegans) (UniProt P91027); test: pull-down; GST pull-down to verify hits of the mass spectrometry; not described further
T1 sequence: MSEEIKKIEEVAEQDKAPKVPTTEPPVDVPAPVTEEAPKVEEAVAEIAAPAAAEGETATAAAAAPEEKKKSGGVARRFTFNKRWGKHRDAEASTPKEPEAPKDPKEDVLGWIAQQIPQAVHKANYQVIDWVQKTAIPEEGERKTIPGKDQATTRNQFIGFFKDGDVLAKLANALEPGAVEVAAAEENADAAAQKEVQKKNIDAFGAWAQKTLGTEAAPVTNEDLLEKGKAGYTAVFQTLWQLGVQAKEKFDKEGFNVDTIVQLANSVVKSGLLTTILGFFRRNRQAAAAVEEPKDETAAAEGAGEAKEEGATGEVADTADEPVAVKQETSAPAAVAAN

[2] = molecular target: Flag-tagged full-length CHDP-1 (C. elegans) (UniProt P91027); test: co-IP; HEK293T cells co-transfected with Flag- and Myc-tagged constructs; lysates incubated with anti-FLAG M2 affinity gel beads at 4 °C overnight, washed three times, immunoblot
[3] = molecular target: T2, CHDP-1 CH domain fragment (AA 121-242) (C. elegans) (UniProt P91027); test: as above
T2 sequence: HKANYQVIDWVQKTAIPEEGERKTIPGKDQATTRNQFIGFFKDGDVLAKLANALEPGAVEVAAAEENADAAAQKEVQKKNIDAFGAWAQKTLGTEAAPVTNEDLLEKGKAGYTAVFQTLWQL

Substance: CED-10 of the GST pull-down (from UniProt Q03206 1-191)
- binding [1]: binds

Substance: Myc-tagged CED-10 (G12V) (from UniProt Q03206 1-191)
- binding [2]: binds

Substance: Myc-tagged CED-10 (from UniProt Q03206 1-191)
- binding [3]: binds
